At least one compound was matched to its structure with a doubt left.
Test system: SV40-DNA amplification in SV40 transformed embryonic CO631 hamster cells
Assay: SV40-DNA gene amplification system in SV40-transformed hamster cells
Type: cell-based, Chinese Hamster
Details: model substance given alone; FIGS. 1 to 3
Description: To investigate the amplification phenomena, a hamster cell strain is used which contains a virus (simian virus 40) integrated in the genome. It is known for this cell strain that an addition of genotoxic substances, but also various “non-genotoxic” carcinogens and tumor inducers, leads to amplification of SV40-DNA in the hamster genome. The method is based on the fact that marked SV40-DNA with hamster cell-DNA containing SV40-DNA in an amplified number, serving as a probe, is hybridized. The quantity of bound probe gives an insight into the degree of amplification of the integrated virus-DNA.
In order to determine the degree of amplification, the albumin-gene-DNA is measured simultaneously with the SV40-DNA. The albumin-gene, as opposed to SV40-DNA, is not amplified in the cell. Accordingly the value of the relative SV40-DNA content results from the quotient of the signal of the DNA probe hybridized with SV40-DNA to the signal of the DNA probe hybridized with albumin gene from the same SV40 transformed embryonic CO631 hamster cells.
The effect of the above named model substances alone or in combination with a carcinogen is tested in the gene amplification system.

Compound: Cc1cc(O)c2c(O)c3c(O)cccc3cc2c1 [chrysarobin]
- effect on SV40 gene amplification: increase the SV40 gene amplification

— patent US6589941B1 (priority 1995, dated 2003)
